Results deposited as PubChem BioAssay AID1224830 (NIAID, 2016)
Screen: 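Host factors that control LPS-induced TNF expression in human macrophages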 (primary screen). Cells: human THP-1 monocytic leukaemia cells, TNF dual-luciferase reporter clone, PMA-differentiated to macrophage-like cells. Knock-down reagent: siRNA pool against human genes, 50 nM. Timing: LPS for 4 h, given about 3 days after siRNA transfection. Treatment: bacterial LPS (TLR4 ligand), 10 ng/ml. Read-out: 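TNF firefly reporter luminescence divided by renilla, normalised to the plate median, then turned into a robust z-score for each replicate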. Reading the numbers: TNF reporter robust z-score: higher = stronger TNF reporter response to LPS. Rule for the call: 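a well is active when its z-score exceeds 2.8 or falls below -1.5; control wells carry no call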.
In all, the deposit lists about 18,000 reagents; this is a part drawn at random. About 2,900 of all reagents (16%) count as active. 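Calls are made per well; low scores hint the gene aids the LPS response, high scores that it dampens it.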 Entries without a mark were called inactive. Repeated entries: four replicate wells of each siRNA pool.

gene knocked down | TNF reporter robust z-score
DHX16 | 3.27 (active)
DHX16 | 5.66 (active)
DHX16 | 2.66
DHX16 | 5.6 (active)
HOMER3 | -1.03
HOMER3 | 0.22
HOMER3 | -0.43
HOMER3 | 0.39
CDHR2 | 0.48
CDHR2 | 1.34
CDHR2 | 0.93
CDHR2 | 0.41
PRDM10 | 1.55
PRDM10 | 0.2
PRDM10 | 0.13
PRDM10 | 0.47
PSMD1 | -1.42
PSMD1 | -1.4
PSMD1 | -1.39
PSMD1 | -1.38
BICRAL | 1.74
BICRAL | 0.55
BICRAL | 2.01
BICRAL | 1.41
KCNQ4 | 1.48
KCNQ4 | 0.3
KCNQ4 | 0.9
KCNQ4 | -0.19
UHRF1 | 0.88
UHRF1 | 2.7
UHRF1 | 0.63
RNF152 | -2.33 (active)
RNF152 | -2.19 (active)
RNF152 | -0.15
RNF152 | -1.7 (active)
DNASE2B | 1.37
DNASE2B | 0.68
DNASE2B | 0.39
DNASE2B | -0.06
PPCS | -0.19
PPCS | -0.08
PPCS | 0.22
PPCS | 0.7
SS18L2 | -1.01
SS18L2 | -1.19
SS18L2 | -0.81
SS18L2 | -0.26
STX17 | -1.3
STX17 | -0.89
STX17 | -1.54 (active)
STX17 | -1.18
COL6A5 | -1
COL6A5 | 0.26
COL6A5 | -0.28
COL6A5 | -0.57
OGFOD1 | -1.73 (active)
OGFOD1 | -0.49
OGFOD1 | -0.09
OGFOD1 | -0.51
ZNRF2 | 1.09
ZNRF2 | 0.28
ZNRF2 | 49.6 (active)
ZNRF2 | 1.05
CTPS1 | 0.3
CTPS1 | -0.34
CTPS1 | -0.33
CTPS1 | 0.65
TEAD2 | -0.56
TEAD2 | 0.33
TEAD2 | 1.11
TEAD2 | 1.71
VWA7 | -1.37
VWA7 | -1.04
VWA7 | -0.89
VWA7 | -1
CLDN7 | 0.56
CLDN7 | -0.63
CLDN7 | 0.39
CLDN7 | 0.8
REEP1 | 0.26
REEP1 | 1.62
REEP1 | 0.68
REEP1 | 1.99
NHLRC1 | -0.03
NHLRC1 | 3.75 (active)
NHLRC1 | -0.21
NHLRC1 | 0.69
LGALS9 | -0.77
LGALS9 | 0.16
LGALS9 | 0.32
LGALS9 | -0.23
TMEM65 | 0.12
TMEM65 | -0.03
TMEM65 | 0.19
TMEM65 | -0.35
RHOU | -0.14
RHOU | 1.28
RHOU | 0.7
RHOU | -0.11
LKAAEAR1 | -1.77 (active)
LKAAEAR1 | -1.74 (active)
LKAAEAR1 | -2.14 (active)
LKAAEAR1 | -1.86 (active)
MDK | -0.21
MDK | -0.6
MDK | -0.58
MDK | 0.21
DNPEP | -0.91
DNPEP | -1.57 (active)
DNPEP | -0.6
DNPEP | 2.1

Targets listed so far whose target name starts with U or u:
gene knocked down | TNF reporter robust z-score
UHRF1 | 0.88
UHRF1 | 2.7
UHRF1 | 0.63
